Assay results from the supplement of paper PMC10849652.
The other results are listed elsewhere or left out.

Protein sequences, listed by entry. Tags and fused reporters are not part of them. Lines headed by an entry give the natural chain unless they say otherwise; changes in a name come on top.
UniProt O14818: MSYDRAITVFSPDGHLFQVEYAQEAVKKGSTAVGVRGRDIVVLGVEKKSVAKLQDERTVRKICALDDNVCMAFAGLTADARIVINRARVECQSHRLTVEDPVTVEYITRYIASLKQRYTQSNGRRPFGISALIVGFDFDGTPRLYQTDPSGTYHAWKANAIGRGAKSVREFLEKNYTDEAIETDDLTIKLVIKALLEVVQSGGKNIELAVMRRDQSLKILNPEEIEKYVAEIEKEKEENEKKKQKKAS
UniProt Q03393: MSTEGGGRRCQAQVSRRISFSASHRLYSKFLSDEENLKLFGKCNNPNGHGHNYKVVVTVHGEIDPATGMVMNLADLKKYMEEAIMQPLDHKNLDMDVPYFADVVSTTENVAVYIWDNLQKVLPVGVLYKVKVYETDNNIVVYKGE
UniProt Q9UHX1: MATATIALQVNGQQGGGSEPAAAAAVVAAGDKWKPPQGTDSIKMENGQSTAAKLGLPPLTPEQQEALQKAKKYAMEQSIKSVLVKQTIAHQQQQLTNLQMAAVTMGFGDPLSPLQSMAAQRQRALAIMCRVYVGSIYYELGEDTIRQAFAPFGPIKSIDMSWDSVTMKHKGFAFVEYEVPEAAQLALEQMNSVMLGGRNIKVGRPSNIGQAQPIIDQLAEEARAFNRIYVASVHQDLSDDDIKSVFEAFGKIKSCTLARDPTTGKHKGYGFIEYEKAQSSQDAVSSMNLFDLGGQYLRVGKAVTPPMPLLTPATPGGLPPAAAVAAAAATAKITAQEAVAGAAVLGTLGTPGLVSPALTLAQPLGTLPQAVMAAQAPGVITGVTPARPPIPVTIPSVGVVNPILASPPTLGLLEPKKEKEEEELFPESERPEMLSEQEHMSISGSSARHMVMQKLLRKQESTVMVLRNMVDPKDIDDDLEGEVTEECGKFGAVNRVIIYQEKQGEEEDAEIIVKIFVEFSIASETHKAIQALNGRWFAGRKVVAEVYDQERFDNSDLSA
UniProt P61289: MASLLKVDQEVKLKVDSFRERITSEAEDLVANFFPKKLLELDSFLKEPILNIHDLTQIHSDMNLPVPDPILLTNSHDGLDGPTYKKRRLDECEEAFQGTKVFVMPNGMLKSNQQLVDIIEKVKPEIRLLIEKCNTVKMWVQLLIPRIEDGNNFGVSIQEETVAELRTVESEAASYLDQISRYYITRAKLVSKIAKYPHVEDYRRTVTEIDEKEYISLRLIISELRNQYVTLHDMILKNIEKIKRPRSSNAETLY
UniProt P17980, whole entry, looked up: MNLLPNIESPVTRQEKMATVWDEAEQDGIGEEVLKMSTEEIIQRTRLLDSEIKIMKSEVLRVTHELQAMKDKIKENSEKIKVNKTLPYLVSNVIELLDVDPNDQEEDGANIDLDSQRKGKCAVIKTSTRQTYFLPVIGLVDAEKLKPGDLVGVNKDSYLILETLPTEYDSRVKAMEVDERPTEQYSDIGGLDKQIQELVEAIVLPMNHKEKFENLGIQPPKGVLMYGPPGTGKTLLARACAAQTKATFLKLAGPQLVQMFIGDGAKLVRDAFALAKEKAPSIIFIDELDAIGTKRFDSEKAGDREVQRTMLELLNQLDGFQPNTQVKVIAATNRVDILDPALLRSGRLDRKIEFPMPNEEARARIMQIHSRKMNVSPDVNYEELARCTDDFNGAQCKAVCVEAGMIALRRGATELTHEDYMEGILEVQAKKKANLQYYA
UniProt P15151: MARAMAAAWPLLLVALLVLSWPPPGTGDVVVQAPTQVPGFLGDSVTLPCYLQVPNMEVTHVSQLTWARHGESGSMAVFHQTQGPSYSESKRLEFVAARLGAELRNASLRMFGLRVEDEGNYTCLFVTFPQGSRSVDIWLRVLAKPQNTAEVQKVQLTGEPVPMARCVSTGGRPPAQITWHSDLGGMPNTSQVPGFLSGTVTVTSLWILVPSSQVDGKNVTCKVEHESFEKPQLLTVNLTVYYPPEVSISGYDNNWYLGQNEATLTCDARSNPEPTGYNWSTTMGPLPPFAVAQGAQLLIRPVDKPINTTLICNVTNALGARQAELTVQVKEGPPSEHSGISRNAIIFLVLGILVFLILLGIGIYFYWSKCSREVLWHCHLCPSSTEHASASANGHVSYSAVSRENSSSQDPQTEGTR
UniProt Q8N8N7: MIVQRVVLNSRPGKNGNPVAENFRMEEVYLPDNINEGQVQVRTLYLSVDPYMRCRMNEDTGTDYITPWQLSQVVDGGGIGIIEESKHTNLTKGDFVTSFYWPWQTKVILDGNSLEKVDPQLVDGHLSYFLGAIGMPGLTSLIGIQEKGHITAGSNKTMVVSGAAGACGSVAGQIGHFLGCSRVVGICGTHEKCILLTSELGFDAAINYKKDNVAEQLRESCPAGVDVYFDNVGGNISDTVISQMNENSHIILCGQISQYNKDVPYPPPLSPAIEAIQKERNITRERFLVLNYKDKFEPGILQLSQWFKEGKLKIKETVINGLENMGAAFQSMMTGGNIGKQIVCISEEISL
UniProt Q9P2B2: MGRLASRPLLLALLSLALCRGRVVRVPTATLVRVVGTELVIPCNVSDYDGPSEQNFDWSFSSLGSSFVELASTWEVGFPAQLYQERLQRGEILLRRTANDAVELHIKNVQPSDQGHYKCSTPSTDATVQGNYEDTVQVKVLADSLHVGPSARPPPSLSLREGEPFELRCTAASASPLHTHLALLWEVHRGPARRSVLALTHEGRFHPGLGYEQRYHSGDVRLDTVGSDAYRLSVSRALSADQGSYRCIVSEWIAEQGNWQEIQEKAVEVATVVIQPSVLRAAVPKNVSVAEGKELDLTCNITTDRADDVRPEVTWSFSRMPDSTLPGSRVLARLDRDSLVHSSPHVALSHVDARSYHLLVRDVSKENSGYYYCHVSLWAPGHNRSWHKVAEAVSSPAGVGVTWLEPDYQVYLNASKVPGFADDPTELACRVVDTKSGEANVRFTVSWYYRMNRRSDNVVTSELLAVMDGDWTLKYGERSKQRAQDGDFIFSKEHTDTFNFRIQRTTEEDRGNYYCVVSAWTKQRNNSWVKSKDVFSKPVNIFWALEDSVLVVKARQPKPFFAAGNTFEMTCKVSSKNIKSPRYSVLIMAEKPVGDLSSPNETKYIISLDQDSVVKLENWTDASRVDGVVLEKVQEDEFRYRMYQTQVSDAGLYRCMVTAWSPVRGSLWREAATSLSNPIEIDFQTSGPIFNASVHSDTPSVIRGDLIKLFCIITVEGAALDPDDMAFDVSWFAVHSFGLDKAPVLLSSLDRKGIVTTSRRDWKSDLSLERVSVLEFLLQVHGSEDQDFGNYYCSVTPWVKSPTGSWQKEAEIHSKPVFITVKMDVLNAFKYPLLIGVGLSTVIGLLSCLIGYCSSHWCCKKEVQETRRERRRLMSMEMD
UniProt P08575: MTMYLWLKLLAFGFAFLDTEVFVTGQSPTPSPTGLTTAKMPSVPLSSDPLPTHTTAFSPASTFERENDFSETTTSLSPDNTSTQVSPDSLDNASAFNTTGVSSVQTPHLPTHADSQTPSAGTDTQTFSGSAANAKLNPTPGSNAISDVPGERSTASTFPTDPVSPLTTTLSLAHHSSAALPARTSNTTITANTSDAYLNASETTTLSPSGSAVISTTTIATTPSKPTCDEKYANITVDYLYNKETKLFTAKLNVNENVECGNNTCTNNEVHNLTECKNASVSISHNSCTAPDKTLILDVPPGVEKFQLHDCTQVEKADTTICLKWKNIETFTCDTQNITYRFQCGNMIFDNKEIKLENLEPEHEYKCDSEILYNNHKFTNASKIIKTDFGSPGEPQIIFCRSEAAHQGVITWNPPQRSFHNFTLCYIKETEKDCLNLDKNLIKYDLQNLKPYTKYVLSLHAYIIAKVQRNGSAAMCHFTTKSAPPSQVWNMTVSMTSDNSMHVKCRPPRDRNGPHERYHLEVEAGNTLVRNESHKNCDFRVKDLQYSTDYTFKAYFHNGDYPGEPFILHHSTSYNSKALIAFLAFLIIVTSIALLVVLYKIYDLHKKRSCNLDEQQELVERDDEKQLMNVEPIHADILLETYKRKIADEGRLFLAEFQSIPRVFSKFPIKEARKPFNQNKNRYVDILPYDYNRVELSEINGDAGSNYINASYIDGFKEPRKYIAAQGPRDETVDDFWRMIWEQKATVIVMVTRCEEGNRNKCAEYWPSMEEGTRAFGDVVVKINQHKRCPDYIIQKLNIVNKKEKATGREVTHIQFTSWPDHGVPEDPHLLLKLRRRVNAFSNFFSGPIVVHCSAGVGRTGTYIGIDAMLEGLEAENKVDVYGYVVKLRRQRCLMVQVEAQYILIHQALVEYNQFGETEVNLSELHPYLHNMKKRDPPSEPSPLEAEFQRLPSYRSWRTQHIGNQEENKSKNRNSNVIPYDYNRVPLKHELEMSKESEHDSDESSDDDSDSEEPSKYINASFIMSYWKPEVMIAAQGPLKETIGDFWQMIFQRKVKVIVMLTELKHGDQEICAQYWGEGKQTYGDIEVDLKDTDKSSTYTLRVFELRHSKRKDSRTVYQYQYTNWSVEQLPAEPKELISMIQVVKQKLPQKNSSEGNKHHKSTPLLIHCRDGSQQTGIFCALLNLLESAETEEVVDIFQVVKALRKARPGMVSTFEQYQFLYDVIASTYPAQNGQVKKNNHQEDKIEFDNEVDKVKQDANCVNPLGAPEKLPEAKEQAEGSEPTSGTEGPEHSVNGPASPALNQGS
UniProt Q06323: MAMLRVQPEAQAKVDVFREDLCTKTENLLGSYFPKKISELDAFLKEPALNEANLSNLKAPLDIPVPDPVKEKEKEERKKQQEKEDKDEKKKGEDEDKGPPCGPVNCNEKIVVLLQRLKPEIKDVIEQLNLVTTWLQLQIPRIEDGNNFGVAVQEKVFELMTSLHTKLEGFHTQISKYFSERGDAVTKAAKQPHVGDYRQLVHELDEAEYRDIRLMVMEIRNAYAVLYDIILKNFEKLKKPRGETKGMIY
UniProt Q92530: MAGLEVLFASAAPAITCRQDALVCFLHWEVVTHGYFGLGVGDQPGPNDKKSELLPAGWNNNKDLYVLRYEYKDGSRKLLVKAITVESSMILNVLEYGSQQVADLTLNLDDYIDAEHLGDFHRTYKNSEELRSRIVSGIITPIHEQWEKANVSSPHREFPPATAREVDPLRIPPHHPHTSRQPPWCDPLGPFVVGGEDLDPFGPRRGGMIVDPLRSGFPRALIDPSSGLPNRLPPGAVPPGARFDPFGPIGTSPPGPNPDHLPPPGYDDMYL
UniProt O75475: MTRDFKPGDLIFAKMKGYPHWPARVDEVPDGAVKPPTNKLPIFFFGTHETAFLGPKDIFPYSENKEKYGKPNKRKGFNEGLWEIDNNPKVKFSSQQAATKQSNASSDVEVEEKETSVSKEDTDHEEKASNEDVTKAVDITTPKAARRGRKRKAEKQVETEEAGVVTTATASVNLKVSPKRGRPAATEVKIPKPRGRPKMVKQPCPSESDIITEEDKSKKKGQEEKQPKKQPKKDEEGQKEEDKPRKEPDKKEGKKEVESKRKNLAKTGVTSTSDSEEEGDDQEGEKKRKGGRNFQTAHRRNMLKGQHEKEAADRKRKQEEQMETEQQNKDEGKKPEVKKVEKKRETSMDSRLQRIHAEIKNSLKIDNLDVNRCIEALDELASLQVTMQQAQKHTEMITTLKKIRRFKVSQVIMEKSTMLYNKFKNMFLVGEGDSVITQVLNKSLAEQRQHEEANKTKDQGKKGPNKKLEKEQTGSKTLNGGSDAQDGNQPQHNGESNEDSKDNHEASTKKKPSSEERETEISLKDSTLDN
UniProt Q8TBF2: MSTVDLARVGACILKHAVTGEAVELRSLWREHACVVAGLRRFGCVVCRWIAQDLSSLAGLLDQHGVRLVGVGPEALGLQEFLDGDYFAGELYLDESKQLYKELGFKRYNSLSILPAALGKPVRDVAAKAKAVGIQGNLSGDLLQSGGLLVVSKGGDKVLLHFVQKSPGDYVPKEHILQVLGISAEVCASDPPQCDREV
UniProt Q96PZ0: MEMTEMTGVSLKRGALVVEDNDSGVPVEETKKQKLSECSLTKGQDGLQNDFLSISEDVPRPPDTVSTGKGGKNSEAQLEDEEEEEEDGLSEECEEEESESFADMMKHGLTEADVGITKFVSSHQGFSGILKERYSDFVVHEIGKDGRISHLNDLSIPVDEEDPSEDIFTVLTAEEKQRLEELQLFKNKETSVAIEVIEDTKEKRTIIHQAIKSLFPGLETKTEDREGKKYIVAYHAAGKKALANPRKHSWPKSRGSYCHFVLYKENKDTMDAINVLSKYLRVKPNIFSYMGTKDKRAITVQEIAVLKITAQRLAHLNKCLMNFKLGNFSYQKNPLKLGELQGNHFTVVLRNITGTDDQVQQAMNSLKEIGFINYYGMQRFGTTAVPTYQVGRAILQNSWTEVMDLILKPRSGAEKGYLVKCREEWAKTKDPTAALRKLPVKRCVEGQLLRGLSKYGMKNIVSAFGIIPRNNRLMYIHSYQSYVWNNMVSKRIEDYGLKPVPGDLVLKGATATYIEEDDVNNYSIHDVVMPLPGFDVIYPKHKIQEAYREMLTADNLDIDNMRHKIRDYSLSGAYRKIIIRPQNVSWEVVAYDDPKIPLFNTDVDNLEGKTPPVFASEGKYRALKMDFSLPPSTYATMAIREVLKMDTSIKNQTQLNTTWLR

Columns and labels:
Assay in all cases: log2 fold change, soluble protein after heating vs DMSO (PISA); higher = thermal stabilisation; K562 lysate, 10 uM; active = over 0.2 and 3.5 SD of the protein, either way, in both replicates (recomputed)
erlotinib = compound: C#Cc1cccc(Nc2ncnc3cc(OCCOC)c(OCCOC)cc23)c1 [erlotinib]
Procedure, shortened: (§1)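 Following dounce homogenisation of K562 pellets in PBS pH 7.4 with 1 mM MgCl2, crude extract at 1 mg/mL protein was incubated for 30 min with 10 μM compound. Aliquots were then heated for 3 min over 48°C-58°C and pooled, NP-40 was added to 0.5% at 4°C, and soluble protein was recovered as the supernatant at 21,000xg for 90 min. Channel-sum-equalised TMTpro 16plex LC-MS/MS quantified this protein. Each value, from duplicates, is a log-two fold change in thermal stability relative to solvent controls.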

[1] = compound: C/C(=N\NC(=O)C1=CC(=CC=C1)S(=O)(=O)N2CCOCC2)/C3=C(C=CC(=C3)Cl)O
Procedure, shortened: as §1

[2] = compound: C1=CC(=CC=C1C2=NC3=C(N2)C=C(C=C3)C(=O)N)OC4=CC=C(C=C4)Cl
Procedure, shortened: as §1

[3] = compound: C1=CC2=C(C=CC(=C2)/C=C\3/C(=O)NC(=NCC4=CC=CS4)S3)N=C1
Procedure, shortened: as §1

[4] = compound: C1=CC2=NC=CN=C2C=C1/C=C/3\C(=O)NC(=O)S3
Procedure, shortened: as §1

[5] = compound: C1=CC=C(C=C1)C2=NC(=C(N2)C3=CC=NC=C3)C4=CC(=C(C=C4)Cl)O
Procedure, shortened: as §1

[6] = compound: C1=CC=C2C(=C1)C3=NNC4=CC=CC(=C43)C2=O
Procedure, shortened: as §1

[7] = compound: C1CCN(C1)C(=O)NC2=CC=CC(=C2)NC3=NC=C(C(=N3)NCCC4=CN=CN4)Br
Procedure, shortened: as §1

[8] = compound: C1CN(CCC1(CC2=CC=C(C=C2)Cl)N)C3=NC=NC4=C3C=CN4
Procedure, shortened: as §1

IRAK-1-4 Inhibitor I = compound: C1COCCN1CCN2C3=CC=CC=C3N=C2NC(=O)C4=CC(=CC=C4)[N+](=O)[O-] [IRAK-1-4 Inhibitor I]
Procedure, shortened: as §1

Measured: log2 fold change

PSMA7 (UniProt O14818)
inactive: erlotinib -0.02 | [1] 0.006 | [2] -0.004 | [3] -0.007 | [4] -0.016 | [5] 0.002 | [6] 0.018 | [7] 0.027 | [8] -0.005 | IRAK-1-4 Inhibitor I -0.006

PRPSAP1 isoform 2 (UniProt Q14558)
inactive: erlotinib 0.006 | [1] -0.052 | [2] 0.039 | [3] 0.007 | [4] 0.01 | [5] 0.001 | [6] -0.043 | [7] -0.008 | [8] 0.021 | IRAK-1-4 Inhibitor I -0.001

PSMC2 (UniProt P35998)
inactive: erlotinib -0.007 | [1] -0.008 | [2] -0.028 | [3] 0.006 | [4] -0.014 | [5] 0.001 | [6] -0.022 | [7] 0.019 | [8] -0.006 | IRAK-1-4 Inhibitor I 0.007

PTS (UniProt Q03393)
inactive: erlotinib -0.018 | [1] -0.112 | [2] -0.018 | [3] 0.034 | [4] 0.001 | [5] 0.074 | [6] -0.023 | [7] -0.069 | [8] 0.002 | IRAK-1-4 Inhibitor I 0.028

PUF60 isoform 2 (UniProt Q9UHX1)
inactive: erlotinib 0.102 | [1] -0.094 | [2] 0.083 | [3] -0.019 | [4] -0.064 | [5] -0.088 | [6] -0.005 | [7] -0.045 | [8] 0.033 | IRAK-1-4 Inhibitor I -0.011

PUDP isoform 4 (UniProt Q08623)
inactive: erlotinib 0 | [1] -0.024 | [2] 0.02 | [3] -0.046 | [4] -0.031 | [5] 0.004 | [6] 0.047 | [7] 0.009 | [8] 0.054 | IRAK-1-4 Inhibitor I 0.005

PTPN18 (UniProt Q99952)
inactive: erlotinib 0.013 | [1] 0.125 | [2] -0.007 | [3] 0.086 | [4] -0.15 | [5] 0.048 | [6] -0.096 | [7] -0.076 | [8] 0.041 | IRAK-1-4 Inhibitor I -0.025

PSME3 isoform 2 (UniProt P61289)
inactive: erlotinib -0.036 | [1] 0.003 | [2] 0.014 | [3] -0.014 | [4] 0.006 | [5] -0.004 | [6] 0.022 | [7] 0.032 | [8] -0.006 | IRAK-1-4 Inhibitor I -0.017

Random excerpt: 2 records from the list, in no set order.
PUF60 isoform 2 (UniProt Q9UHX1)
inactive: erlotinib 0.102 | [1] -0.094 | [2] 0.083 | [3] -0.019 | [4] -0.064 | [5] -0.088 | [6] -0.005 | [7] -0.045 | [8] 0.033 | IRAK-1-4 Inhibitor I -0.011

PSMC2 (UniProt P35998)
inactive: erlotinib -0.007 | [1] -0.008 | [2] -0.028 | [3] 0.006 | [4] -0.014 | [5] 0.001 | [6] -0.022 | [7] 0.019 | [8] -0.006 | IRAK-1-4 Inhibitor I 0.007

(next part)

PSMC3 (UniProt P17980)
inactive: erlotinib 0.019 | [1] 0.008 | [2] 0.002 | [3] -0.015 | [4] -0.031 | [5] 0.007 | [6] -0.027 | [7] -0.001 | [8] 0.027 | IRAK-1-4 Inhibitor I 0.003

PSMD12 (UniProt O00232)
inactive: erlotinib 0 | [1] 0.02 | [2] -0.018 | [3] -0.011 | [4] -0.014 | [5] 0.002 | [6] 0.012 | [7] 0.001 | [8] -0.005 | IRAK-1-4 Inhibitor I -0.01

PTGES3 (UniProt Q15185)
inactive: erlotinib 0.034 | [1] 0.013 | [2] -0.005 | [3] -0.021 | [4] -0.006 | [5] 0.029 | [6] 0.001 | [7] 0.021 | [8] 0.014 | IRAK-1-4 Inhibitor I 0.022

PSMG2 (UniProt Q969U7)
inactive: erlotinib -0.053 | [1] -0.008 | [2] -0.025 | [3] -0.007 | [4] -0.056 | [5] 0.014 | [6] 0.028 | [7] 0.009 | [8] -0.014 | IRAK-1-4 Inhibitor I 0.018

PVR (UniProt P15151)
inactive: erlotinib -0.045 | [1] -0.191 | [2] 0.017 | [3] -0.03 | [4] 0.004 | [5] -0.034 | [6] -0.021 | [7] -0.014 | [8] -0.006 | IRAK-1-4 Inhibitor I 0.008

PSMB7 (UniProt Q99436)
inactive: erlotinib -0.006 | [1] 0.021 | [2] 0.038 | [3] -0.013 | [4] 0.005 | [5] 0.007 | [6] -0.019 | [7] 0.023 | [8] 0.028 | IRAK-1-4 Inhibitor I -0.003

PRPS1 (UniProt B1ALA9)
inactive: erlotinib -0.001 | [1] 0.039 | [2] 0.019 | [3] -0.037 | [4] 0.043 | [5] -0.003 | [6] 0.028 | [7] -0.05 | [8] 0.003 | IRAK-1-4 Inhibitor I 0.015

PTPN7 isoform 3 (UniProt P35236)
inactive: erlotinib 0.032 | [1] -0.002 | [2] -0.028 | [3] -0.06 | [4] -0.026 | [5] -0.008 | [6] -0.03 | [7] 0.009 | [8] 0.045 | IRAK-1-4 Inhibitor I 0.021

PTGR2 (UniProt Q8N8N7)
inactive: erlotinib 0.01 | [1] 0.064 | [2] 0.001 | [3] 0.065 | [4] -0.041 | [5] 0.054 | [6] 0.016 | [7] 0.015 | [8] 0.001 | IRAK-1-4 Inhibitor I -0.035

PTGFRN (UniProt Q9P2B2)
inactive: erlotinib 0.016 | [1] -0.026 | [2] 0.04 | [3] 0.029 | [4] -0.027 | [5] 0.008 | [6] -0.01 | [7] 0.008 | [8] -0.01 | IRAK-1-4 Inhibitor I 0.011

PTPRJ (UniProt Q12913)
inactive: erlotinib -0.152 | [1] -0.338 | [2] 0.092 | [3] -0.155 | [4] -0.197 | [5] -0.093 | [6] -0.041 | [7] -0.051 | [8] -0.042 | IRAK-1-4 Inhibitor I -0.043

PTPRC (UniProt P08575)
inactive: erlotinib -0.003 | [1] 0.014 | [2] 0.015 | [3] 0 | [4] 0.013 | [5] 0.001 | [6] -0.034 | [7] 0 | [8] 0.023 | IRAK-1-4 Inhibitor I -0.003

PSME1 (UniProt Q06323)
inactive: erlotinib 0.01 | [1] 0.02 | [2] 0.018 | [3] -0.013 | [4] 0.018 | [5] -0.005 | [6] -0.02 | [7] 0.034 | [8] 0.038 | IRAK-1-4 Inhibitor I 0.009

PTRH2 (UniProt Q9Y3E5)
inactive: erlotinib -0.005 | [1] 0 | [2] 0.05 | [3] -0.015 | [4] 0.05 | [5] -0.001 | [6] -0.077 | [7] -0.011 | [8] 0.027 | IRAK-1-4 Inhibitor I 0.018

PSMF1 (UniProt Q92530)
inactive: erlotinib -0.035 | [1] -0.052 | [2] 0.031 | [3] 0.007 | [4] -0.03 | [5] -0.049 | [6] 0.011 | [7] 0.027 | [8] 0.023 | IRAK-1-4 Inhibitor I 0.042

PUF60 (UniProt Q9UHX1)
inactive: erlotinib 0.001 | [1] 0.003 | [2] -0.01 | [3] 0.011 | [4] -0.018 | [5] -0.018 | [6] 0.01 | [7] 0.003 | [8] 0.003 | IRAK-1-4 Inhibitor I -0.023

PSIP1 (UniProt O75475)
inactive: erlotinib -0.016 | [1] -0.067 | [2] 0.021 | [3] 0.011 | [4] -0.014 | [5] 0.022 | [6] -0.018 | [7] -0.016 | [8] 0.001 | IRAK-1-4 Inhibitor I -0.001

PRXL2B isoform 3 (UniProt Q8TBF2)
inactive: erlotinib 0 | [1] -0.157 | [2] -0.027 | [3] 0.022 | [4] -0.034 | [5] -0.044 | [6] -0.096 | [7] 0.019 | [8] -0.04 | IRAK-1-4 Inhibitor I 0.007

PRTFDC1 (UniProt Q9NRG1)
inactive: erlotinib -0.015 | [1] -0.007 | [2] 0.014 | [3] -0.025 | [4] -0.017 | [5] 0.032 | [6] 0.037 | [7] 0.024 | [8] 0.007 | IRAK-1-4 Inhibitor I 0.025

PUS7 isoform 2 (UniProt Q96PZ0)
inactive: erlotinib -0.01 | [1] -0.032 | [2] 0.017 | [3] -0.002 | [4] -0.022 | [5] 0.015 | [6] 0.001 | [7] -0.028 | [8] 0.021 | IRAK-1-4 Inhibitor I 0.007

PTER (UniProt Q96BW5)
inactive: erlotinib -0.031 | [1] -0.026 | [2] 0.038 | [3] -0.01 | [4] -0.009 | [5] 0.013 | [6] 0.02 | [7] -0.021 | [8] 0.041 | IRAK-1-4 Inhibitor I 0.021
